From ChEMBL document CHEMBL3988442, “University of Dundee, Small-Polar-MMV Screening Library” (2021).

Chains of the proteins cited; added tags and fusions are not shown.
UniProt P9WFT3, whole entry: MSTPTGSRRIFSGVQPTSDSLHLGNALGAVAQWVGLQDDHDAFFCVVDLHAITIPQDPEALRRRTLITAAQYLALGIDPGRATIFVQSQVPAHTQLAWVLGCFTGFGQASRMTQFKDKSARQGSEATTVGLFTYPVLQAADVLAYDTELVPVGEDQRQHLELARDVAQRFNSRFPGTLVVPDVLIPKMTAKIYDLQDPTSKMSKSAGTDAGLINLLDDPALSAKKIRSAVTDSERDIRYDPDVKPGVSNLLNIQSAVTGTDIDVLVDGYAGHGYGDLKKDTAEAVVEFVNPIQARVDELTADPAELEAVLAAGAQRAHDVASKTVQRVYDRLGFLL

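Enzyme assay of tryptophanyl-tRNA synthetase; the read-out is not stated. Target: Tryptophan-tRNA ligase, Mycobacterium tuberculosis (UniProt P9WFT3). Compounds at 10 µM. Higher most likely means stronger inhibition; the record gives no direction and few retests gave an IC50. About 65,000 compounds were tested under these conditions; 0.098% (about 64) showed 50% or more at least once.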

Values are the deposited “Percent Effect”, in %.
The controls that fix the scale are not given in the record; negative values are as filed.
The compounds are a random part of those screened.

For CCN(CCc1nc2cc(C)ccc2[nH]1)C(=O)[C@@H](N)COC the result was 2.23%.
For CCc1cc(NC(C)(C)C)nc(N2CCOCC2)n1 the result was -0.2064%.
For Cc1nn(CCO)c(C)c1-c1cc(C(C)(C)C)nc(N)c1C#N the result was -1.254%.
For COCCCN1CCN([C@@H]2c3ccccc3C3(CCNCC3)[C@H]2O)CC1 the result was 2.929%.
For CCCn1cnnc1-c1nc2c([nH]1)CC(c1ccc(Cl)cc1)CNC2=O (centres undefined) the result was 3.638%.
For Cc1cnc(N2C(=O)CSC2c2ccc(N(C)C)cc2)s1 (centres undefined) the result was 1.55%.
For O=C(CN1CCS(=O)(=O)CC1)NC1CCCc2ccccc21 (centres undefined) the result was -0.9183%.
For c1coc(CN2Cc3ccnn3CC(COCC3CC3)C2)c1 (centres undefined) the result was 2.124%.
For COCCN1C[C@H]2CN(C(=O)NCc3ccccc3)CCN2C1=O the result was -0.3765%.
For CN(C)C(=O)COc1ccccc1CN1CCOC2(CCCC2)C1 the result was -1.571%.
For O=C1CCC2(CCCN(Cc3ccccc3F)C2)N1CC1CC1 (centres undefined) the result was -2.829%.
For COc1ccc([C@@H]2CN(C(=O)CCn3cccn3)C[C@H]2NC(C)=O)cc1 the result was 44.91%.
For Cc1c(C(=O)N2CCC3(CCCNC3=O)C2)sc2nc[nH]c(=O)c12 (centres undefined) the result was 7.341%.
For COc1cccc(Cn2ncnc2COC(C)C)c1 the result was -3.173%.
For COC(=O)[C@H](CSC)Nc1nc(C2CCCC2)nc2c1cnn2C the result was 3.49%.
For CC(=O)N(Cc1ncc(C)o1)C1CCN(CCCc2cnn(C)c2)C1 (centres undefined) the result was -1.943%.
For Cc1occc1CNc1ncccc1S(N)(=O)=O the result was 5.987%.
For CC(=O)c1ccc(N2CCC3(CC2)CC(=O)N(C)C3)nc1 the result was 2.834%.
For Cc1cc(-c2nc(C3(NC(=O)OC(C)(C)C)CCC3)no2)on1 the result was 1.332%.
For O=C(COCC(=O)N(c1ccccc1)c1ccccc1)N1CCOCC1 the result was 2.365%.
For COc1cccc(C2CCN2C(=O)c2cnccn2)c1 (centres undefined) the result was -1.644%.
For CN(Cc1cc(-c2ccncc2)no1)Cc1nccn1C the result was -4.633%.
For CC(=O)NCCNC(=O)c1cnc(C(C)(C)C)s1 the result was -1.981%.
For CS(=O)(=O)CCN1CC(c2ccccc2)(c2ccccc2)CCC1=O the result was 0.3276%.
For Cc1ccc(-n2c(O)cc(C)c(C#N)c2=O)c(C)c1 the result was -0.2154%.
For CC(C)n1cnc2c1C(C(=O)NCCO)N(Cc1ccccc1)CC2 (centres undefined) the result was -0.8137%.
For O=C(c1ccsc1)N1CCc2c(CNc3ncccn3)n[nH]c2C1 the result was 0.5247%.
For Cc1cccc(COc2ccc(C(C)NS(N)(=O)=O)cc2)c1 (centres undefined) the result was -31.49%.
For CNC(=O)[C@@H]1C[C@H]2CN(Cc3nccs3)C[C@H]2N1C the result was 3.893%.
For O=C(CCn1ccnn1)N1CCCC(n2cncn2)C1 (centres undefined) the result was -1.212%.
For N#Cc1ccc(C2CC(=O)Nc3c2cnn3C2CCCC2)cc1 (centres undefined) the result was -1.421%.
For CC(CN1CCOCC1)NCC1CCN(c2cnn(C)c(=O)c2)CC1 (centres undefined) the result was -0.000009%.
For COc1ccc(-c2n[nH]c(C)c2CC(=O)NCC2CCOCC2)cc1 the result was -0.4823%.
For COCCN1C(=O)CC[C@@H]2[C@H]1CCN2C(=O)C1CCOCC1 the result was -0.7319%.
For O=C1C[C@H]2[C@@H](CCN2Cc2ccccn2)N1CCN1CCOCC1 the result was -1.599%.
For CC(=O)c1cnc(NCCc2csc(-c3cnccn3)n2)nc1C the result was 3.662%.
For CS(=O)(=O)N1CCCC12CCCN(C(=O)c1ccno1)C2 (centres undefined) the result was -9.091%.
For O=C(COc1coc(CN2CCCCCC2)cc1=O)c1ccccc1 the result was 9.004%.
For Cc1ccsc1CN1CC[C@H]2O[C@H](C(=O)N3CCCO3)CC[C@H]21 the result was 1.139%.
For COC(C)(CNS(=O)(=O)c1cccnc1)c1ccccc1F (centres undefined) the result was -1.36%.
For COC(=O)N1CCc2ccc(NC(=O)c3cn(C)nn3)cc2C1 the result was -3.638%.
For O=S1(=O)COCCN1Cc1ccc(F)cc1Cl the result was 2.641%.
For CNS(=O)(=O)c1csc(C(=O)N(C)Cc2sccc2C)c1 the result was -3.641%.
For CC(C(=O)NC1CCCCC1)N1CCc2[nH]nc(C(F)(F)F)c2C1 (centres undefined) the result was 1.144%.
For COc1ccccc1[C@@H]1CN(C(=O)c2csc(C)n2)C[C@H]1C(=O)O the result was -2.844%.
For Cc1cc(C)n(C2CCCN(C(=O)CCc3nccs3)C2)n1 (centres undefined) the result was 9.097%.
For COCCN1CCc2c(CNC(=O)c3nccn3C)cncc2C1 the result was -7.768%.
For Cc1nn(CC(=O)N2CCCN(c3cccnn3)CC2)c(C)c1Cl the result was 5.441%.
For CCCc1cc(=O)[nH]c2nnc(SCC(=O)OCC)n12 the result was 2.502%.
For CC(C)c1cc(NC(=O)CN2CCNC(=O)C2)on1 the result was 0.2201%.
For CCc1n[nH]c(C2CN(Cc3nc(C4CC4)no3)CCO2)n1 (centres undefined) the result was -3.173%.
For C=C(C)COc1cccc(CNC(COC)c2ccnn2C)c1 (centres undefined) the result was 3.116%.
For O=C(c1cn(-c2ccc(C(F)(F)F)cn2)nn1)N1CCCCCC1 the result was -5.094%.
For O=C(c1cc(C2CC2)[nH]n1)N1CCN(c2nccs2)CC1 the result was 2.593%.
For CC(C)(C)c1n[nH]c(C2CN(C(=O)C3=COCCC3)CCO2)n1 (centres undefined) the result was -6.305%.

Once more, the final 5:

{"compound": "CCc1n[nH]c(C2CN(Cc3nc(C4CC4)no3)CCO2)n1", "stereo": "centres undefined", "percent effect": -3.173}
{"compound": "C=C(C)COc1cccc(CNC(COC)c2ccnn2C)c1", "stereo": "centres undefined", "percent effect": 3.116}
{"compound": "O=C(c1cn(-c2ccc(C(F)(F)F)cn2)nn1)N1CCCCCC1", "percent effect": -5.094}
{"compound": "O=C(c1cc(C2CC2)[nH]n1)N1CCN(c2nccs2)CC1", "percent effect": 2.593}
{"compound": "CC(C)(C)c1n[nH]c(C2CN(C(=O)C3=COCCC3)CCO2)n1", "stereo": "centres undefined", "percent effect": -6.305}